The other results are listed elsewhere or left out.
Key:
Test in all cases: log2 fold change, soluble protein after heating vs DMSO (PISA); higher = thermal stabilisation; K562 lysate, 10 uM; active = over 0.2 and 3.5 SD of the protein, either way, in both replicates (recomputed)
erlotinib = compound: C#Cc1cccc(Nc2ncnc3cc(OCCOC)c(OCCOC)cc23)c1 [erlotinib]
Outline: (§1)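 Values give the log-two fold change in thermal stability against solvent controls, from duplicates. Crude K562 extract at 1 mg/mL protein, made by dounce homogenisation in PBS pH 7.4 with 1 mM MgCl2, was treated with 10 μM compound for 30 min. After 3 min heating across 48°C-58°C, aliquots were pooled, adjusted to 0.5% NP-40 at 4°C and centrifuged at 21,000xg for 90 min. The supernatant was measured by TMTpro 16plex LC-MS/MS with channel sums equalised.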

Chains of the proteins cited; added tags and fusions are not shown. Lines headed by an entry give the natural chain unless they say otherwise; changes in a name come on top.
UniProt Q86U38: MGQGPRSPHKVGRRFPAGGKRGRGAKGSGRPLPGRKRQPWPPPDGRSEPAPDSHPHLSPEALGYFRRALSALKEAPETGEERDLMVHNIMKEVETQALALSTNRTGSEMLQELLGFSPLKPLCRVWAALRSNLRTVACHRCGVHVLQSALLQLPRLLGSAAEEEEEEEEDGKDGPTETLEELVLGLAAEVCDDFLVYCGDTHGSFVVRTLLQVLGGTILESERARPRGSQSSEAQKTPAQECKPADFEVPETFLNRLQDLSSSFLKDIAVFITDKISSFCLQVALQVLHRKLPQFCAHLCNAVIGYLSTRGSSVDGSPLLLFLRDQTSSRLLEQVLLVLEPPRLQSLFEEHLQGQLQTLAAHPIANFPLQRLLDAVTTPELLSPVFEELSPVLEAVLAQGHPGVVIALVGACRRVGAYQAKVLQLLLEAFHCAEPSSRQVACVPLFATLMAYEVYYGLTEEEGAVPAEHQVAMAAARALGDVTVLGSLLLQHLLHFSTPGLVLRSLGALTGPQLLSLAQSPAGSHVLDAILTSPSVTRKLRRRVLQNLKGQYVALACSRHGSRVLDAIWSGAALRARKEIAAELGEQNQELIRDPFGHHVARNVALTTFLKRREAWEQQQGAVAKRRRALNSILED
UniProt Q9BRJ7: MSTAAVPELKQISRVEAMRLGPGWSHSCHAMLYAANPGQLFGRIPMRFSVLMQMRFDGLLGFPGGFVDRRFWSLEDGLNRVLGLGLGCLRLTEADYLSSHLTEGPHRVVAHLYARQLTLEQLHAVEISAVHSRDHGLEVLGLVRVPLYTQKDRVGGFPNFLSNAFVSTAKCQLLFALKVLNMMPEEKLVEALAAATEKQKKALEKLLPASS
UniProt P61916: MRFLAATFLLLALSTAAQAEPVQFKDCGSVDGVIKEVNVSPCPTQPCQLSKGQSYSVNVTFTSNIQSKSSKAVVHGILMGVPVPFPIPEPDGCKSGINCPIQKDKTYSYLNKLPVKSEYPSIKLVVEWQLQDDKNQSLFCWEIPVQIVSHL
UniProt Q8WVJ2: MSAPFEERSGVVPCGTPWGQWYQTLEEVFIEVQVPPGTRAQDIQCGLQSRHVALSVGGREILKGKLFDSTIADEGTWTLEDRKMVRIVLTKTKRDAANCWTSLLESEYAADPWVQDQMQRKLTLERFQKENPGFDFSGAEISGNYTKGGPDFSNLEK
UniProt Q9H1E3: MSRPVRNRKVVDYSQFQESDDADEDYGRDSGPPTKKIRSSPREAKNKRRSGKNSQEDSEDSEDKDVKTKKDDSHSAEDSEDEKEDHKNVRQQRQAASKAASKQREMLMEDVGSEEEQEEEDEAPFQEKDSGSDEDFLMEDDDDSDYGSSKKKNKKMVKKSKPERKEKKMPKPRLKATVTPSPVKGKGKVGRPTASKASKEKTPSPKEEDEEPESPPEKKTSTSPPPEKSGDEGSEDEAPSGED
UniProt Q8NC60: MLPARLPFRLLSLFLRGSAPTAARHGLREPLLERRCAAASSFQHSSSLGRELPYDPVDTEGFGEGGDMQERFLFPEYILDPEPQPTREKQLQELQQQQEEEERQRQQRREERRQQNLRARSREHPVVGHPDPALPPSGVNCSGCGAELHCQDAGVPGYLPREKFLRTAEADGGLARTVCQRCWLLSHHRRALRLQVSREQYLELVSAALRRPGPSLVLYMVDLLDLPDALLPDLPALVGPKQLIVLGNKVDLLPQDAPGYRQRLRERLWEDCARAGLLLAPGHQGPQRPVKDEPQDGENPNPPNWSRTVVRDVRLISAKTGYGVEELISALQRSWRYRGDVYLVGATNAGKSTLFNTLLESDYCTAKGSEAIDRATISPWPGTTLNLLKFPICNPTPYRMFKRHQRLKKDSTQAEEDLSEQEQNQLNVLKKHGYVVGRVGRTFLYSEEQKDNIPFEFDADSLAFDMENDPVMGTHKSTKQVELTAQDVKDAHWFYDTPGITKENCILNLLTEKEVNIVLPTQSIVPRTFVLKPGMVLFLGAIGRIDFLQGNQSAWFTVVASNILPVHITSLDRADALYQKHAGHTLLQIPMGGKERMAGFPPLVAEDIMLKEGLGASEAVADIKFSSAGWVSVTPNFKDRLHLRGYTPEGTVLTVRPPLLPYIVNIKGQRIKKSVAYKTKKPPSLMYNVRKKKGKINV
UniProt Q8TEA1: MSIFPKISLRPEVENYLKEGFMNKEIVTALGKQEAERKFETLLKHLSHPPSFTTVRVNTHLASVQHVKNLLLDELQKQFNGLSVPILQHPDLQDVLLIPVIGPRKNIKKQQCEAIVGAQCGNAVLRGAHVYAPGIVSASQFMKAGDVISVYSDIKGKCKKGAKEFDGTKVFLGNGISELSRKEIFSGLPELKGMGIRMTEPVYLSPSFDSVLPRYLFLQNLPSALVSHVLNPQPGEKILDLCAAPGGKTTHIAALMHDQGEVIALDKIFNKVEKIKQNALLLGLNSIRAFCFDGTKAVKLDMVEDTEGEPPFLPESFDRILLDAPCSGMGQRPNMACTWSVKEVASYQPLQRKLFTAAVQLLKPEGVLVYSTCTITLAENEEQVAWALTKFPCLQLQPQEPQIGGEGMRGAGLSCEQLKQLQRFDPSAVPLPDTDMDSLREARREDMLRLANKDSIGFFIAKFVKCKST
UniProt O43809, whole entry, looked up: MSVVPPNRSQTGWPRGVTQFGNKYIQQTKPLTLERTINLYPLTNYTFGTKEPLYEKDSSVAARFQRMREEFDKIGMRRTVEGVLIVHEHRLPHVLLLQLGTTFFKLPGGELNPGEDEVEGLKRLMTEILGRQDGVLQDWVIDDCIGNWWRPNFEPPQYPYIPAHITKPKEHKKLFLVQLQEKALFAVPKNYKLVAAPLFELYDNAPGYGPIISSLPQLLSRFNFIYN
UniProt P16083: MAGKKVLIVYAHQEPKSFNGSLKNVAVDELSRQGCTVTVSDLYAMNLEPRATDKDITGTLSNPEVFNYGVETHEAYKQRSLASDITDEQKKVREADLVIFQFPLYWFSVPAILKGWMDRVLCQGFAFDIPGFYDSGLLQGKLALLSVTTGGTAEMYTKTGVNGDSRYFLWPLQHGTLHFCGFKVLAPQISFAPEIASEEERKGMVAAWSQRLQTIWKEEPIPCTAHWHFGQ
UniProt Q02818: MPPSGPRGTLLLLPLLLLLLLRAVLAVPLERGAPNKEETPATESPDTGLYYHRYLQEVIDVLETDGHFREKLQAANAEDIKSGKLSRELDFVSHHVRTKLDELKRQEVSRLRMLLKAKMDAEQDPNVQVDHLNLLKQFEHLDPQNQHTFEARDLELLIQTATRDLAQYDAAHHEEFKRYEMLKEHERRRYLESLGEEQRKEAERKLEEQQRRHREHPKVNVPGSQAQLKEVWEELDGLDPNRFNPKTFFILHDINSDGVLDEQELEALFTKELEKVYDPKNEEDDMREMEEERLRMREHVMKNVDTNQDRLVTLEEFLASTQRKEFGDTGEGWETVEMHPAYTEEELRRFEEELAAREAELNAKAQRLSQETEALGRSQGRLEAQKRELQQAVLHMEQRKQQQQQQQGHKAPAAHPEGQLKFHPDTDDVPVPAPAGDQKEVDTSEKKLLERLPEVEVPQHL
UniProt A8MXV4: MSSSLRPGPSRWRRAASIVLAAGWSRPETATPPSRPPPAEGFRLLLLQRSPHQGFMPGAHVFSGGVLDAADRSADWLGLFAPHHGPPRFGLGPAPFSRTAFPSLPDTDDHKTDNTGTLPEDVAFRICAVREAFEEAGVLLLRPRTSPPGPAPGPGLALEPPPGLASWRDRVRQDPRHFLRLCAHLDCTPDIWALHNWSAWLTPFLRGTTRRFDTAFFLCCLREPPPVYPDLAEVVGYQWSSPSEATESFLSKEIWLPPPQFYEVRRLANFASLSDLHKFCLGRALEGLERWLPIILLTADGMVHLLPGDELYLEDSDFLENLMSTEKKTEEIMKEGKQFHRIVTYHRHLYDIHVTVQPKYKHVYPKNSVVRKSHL
UniProt O75607: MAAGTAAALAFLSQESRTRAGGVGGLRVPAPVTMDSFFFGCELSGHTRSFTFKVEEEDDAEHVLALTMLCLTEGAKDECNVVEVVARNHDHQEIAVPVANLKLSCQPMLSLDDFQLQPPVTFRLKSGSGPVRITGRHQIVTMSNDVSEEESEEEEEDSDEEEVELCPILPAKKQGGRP
UniProt P49902: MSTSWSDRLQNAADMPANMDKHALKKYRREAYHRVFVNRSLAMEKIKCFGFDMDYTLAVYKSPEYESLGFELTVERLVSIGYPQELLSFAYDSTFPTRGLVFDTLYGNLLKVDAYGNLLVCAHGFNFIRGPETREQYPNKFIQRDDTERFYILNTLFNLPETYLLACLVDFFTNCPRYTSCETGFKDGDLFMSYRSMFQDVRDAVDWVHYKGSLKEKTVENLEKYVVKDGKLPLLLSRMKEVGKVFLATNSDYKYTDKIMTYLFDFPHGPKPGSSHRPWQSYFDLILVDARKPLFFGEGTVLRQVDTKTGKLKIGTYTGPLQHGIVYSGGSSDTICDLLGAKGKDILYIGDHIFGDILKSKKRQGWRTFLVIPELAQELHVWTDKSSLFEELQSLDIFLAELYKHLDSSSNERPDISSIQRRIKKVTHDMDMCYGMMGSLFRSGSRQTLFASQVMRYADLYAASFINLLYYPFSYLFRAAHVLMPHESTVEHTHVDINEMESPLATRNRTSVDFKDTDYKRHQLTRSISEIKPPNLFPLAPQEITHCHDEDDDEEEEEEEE
UniProt Q9BSC4: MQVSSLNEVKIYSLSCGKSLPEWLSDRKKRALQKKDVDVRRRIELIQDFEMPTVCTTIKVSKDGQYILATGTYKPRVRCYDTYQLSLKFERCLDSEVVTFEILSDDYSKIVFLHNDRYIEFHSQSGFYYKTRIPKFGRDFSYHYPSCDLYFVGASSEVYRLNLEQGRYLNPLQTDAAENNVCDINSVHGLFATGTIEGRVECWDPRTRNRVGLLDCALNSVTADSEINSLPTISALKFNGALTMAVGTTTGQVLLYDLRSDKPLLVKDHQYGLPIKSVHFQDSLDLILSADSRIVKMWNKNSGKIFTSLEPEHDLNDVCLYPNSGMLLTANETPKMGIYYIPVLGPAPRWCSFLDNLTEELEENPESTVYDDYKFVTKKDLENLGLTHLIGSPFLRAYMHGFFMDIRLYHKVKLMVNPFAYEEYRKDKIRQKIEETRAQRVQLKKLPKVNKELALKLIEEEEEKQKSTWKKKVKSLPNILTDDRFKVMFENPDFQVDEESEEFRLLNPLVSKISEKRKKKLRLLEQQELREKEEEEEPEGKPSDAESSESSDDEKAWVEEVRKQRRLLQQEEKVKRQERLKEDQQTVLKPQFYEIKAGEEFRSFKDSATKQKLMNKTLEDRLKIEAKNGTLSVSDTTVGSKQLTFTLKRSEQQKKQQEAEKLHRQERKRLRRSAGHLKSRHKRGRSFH
UniProt Q7Z417: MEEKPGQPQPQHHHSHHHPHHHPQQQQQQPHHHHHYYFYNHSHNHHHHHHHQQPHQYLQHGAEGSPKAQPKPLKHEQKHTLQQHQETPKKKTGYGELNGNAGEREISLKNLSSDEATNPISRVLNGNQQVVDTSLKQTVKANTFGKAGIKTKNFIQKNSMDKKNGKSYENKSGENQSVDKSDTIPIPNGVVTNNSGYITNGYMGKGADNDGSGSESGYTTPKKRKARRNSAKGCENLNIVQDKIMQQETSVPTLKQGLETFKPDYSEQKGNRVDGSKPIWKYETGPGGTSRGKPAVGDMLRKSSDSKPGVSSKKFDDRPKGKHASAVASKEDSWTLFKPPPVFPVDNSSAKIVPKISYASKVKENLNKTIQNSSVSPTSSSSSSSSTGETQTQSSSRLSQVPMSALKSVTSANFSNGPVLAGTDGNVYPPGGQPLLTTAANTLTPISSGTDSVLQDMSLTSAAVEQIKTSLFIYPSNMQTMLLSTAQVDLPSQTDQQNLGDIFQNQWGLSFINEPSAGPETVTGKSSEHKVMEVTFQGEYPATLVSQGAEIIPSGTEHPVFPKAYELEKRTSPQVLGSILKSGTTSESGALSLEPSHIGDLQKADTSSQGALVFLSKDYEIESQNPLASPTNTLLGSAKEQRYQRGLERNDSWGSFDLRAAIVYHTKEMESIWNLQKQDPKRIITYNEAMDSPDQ

[1] = compound: C/C(=N\NC(=O)C1=CC(=CC=C1)S(=O)(=O)N2CCOCC2)/C3=C(C=CC(=C3)Cl)O
Outline: as §1

[2] = compound: C1=CC(=CC=C1C2=NC3=C(N2)C=C(C=C3)C(=O)N)OC4=CC=C(C=C4)Cl
Outline: as §1

[3] = compound: C1=CC2=C(C=CC(=C2)/C=C\3/C(=O)NC(=NCC4=CC=CS4)S3)N=C1
Outline: as §1

[4] = compound: C1=CC2=NC=CN=C2C=C1/C=C/3\C(=O)NC(=O)S3
Outline: as §1

[5] = compound: C1=CC=C(C=C1)C2=NC(=C(N2)C3=CC=NC=C3)C4=CC(=C(C=C4)Cl)O
Outline: as §1

[6] = compound: C1=CC=C2C(=C1)C3=NNC4=CC=CC(=C43)C2=O
Outline: as §1

[7] = compound: C1CCN(C1)C(=O)NC2=CC=CC(=C2)NC3=NC=C(C(=N3)NCCC4=CN=CN4)Br
Outline: as §1

[8] = compound: C1CN(CCC1(CC2=CC=C(C=C2)Cl)N)C3=NC=NC4=C3C=CN4
Outline: as §1

IRAK-1-4 Inhibitor I = compound: C1COCCN1CCN2C3=CC=CC=C3N=C2NC(=O)C4=CC(=CC=C4)[N+](=O)[O-] [IRAK-1-4 Inhibitor I]
Outline: as §1

ibrutinib = compound: C=CC(=O)N1CCC[C@@H](n2nc(-c3ccc(Oc4ccccc4)cc3)c3c(N)ncnc32)C1 [ibrutinib]
Outline: as §1

[9] = compound: CC(=O)c1cnc2ccc(-c3cc(Cl)c(O)c(Cl)c3)nc2c1N[C@H]1CC[C@H](CN(C)C)CC1
Outline: as §1

ralimetinib = compound: CC(C)(C)Cn1c(N)nc2ccc(-c3[nH]c(C(C)(C)C)nc3-c3ccc(F)cc3)nc21 [ralimetinib]
Outline: as §1

[10] = compound: CC(C)(O)CC(=O)NCCn1ccc2ncnc(Nc3ccc(Oc4cccc(C(F)(F)F)c4)c(Cl)c3)c21
Outline: as §1

[11] = compound: CC(C)C1=C2N=C(C=C(N2N=C1)NCC3=CC=CC=C3)NCCCCCCN
Outline: as §1

[12] = compound: CC1=C(C(CC(=O)N1)C2=CC=C(C=C2)C(F)(F)F)C(=O)NC3=C(C=C4C(=C3)C=NN4)F
Outline: as §1

[13] = compound: CC1=C(C2=C(C=C1)C(=O)C3=CC=CC=C3N2CCCN)C
Outline: as §1

[14] = compound: CC1=C(C=C(C=C1)NC(=O)C2=CC(=CC=C2)C(C)(C)C#N)NC3=CC4=C(C=C3)N=CN(C4=O)C
Outline: as §1

[15] = compound: CC1=C(C=C(C=C1)NC(=O)C2=CC(=CC=C2)N(C)C)NC(=O)C3=CC=C(C=C3)O
Outline: as §1

[16] = compound: CC1=CC=C(C=C1)SC2=C3C=C(SC3=CN=C2)C(=O)N
Outline: as §1

Measured: log2 fold change

NUDT1 (UniProt P36639)
inactive: erlotinib 0.019 | [1] -0.028 | [2] 0.026 | [3] 0.005 | [4] -0.051 | [5] -0.014 | [6] 0.015 | [7] -0.009 | [8] 0.031 | IRAK-1-4 Inhibitor I 0.005 | ibrutinib 0.083 | [9] 0.003 | ralimetinib 0.158 | [10] -0.091 | [11] -0.009 | [12] -0.015 | [13] 0.008 | [14] 0.008 | [15] -0.009 | [16] -0.054

NOP9 (UniProt Q86U38)
inactive: erlotinib 0.039 | [1] -0.077 | [2] -0.105 | [3] -0.058 | [4] 0.004 | [5] -0.034 | [6] 0.045 | [7] 0.042 | [8] -0.058 | IRAK-1-4 Inhibitor I -0.043 | ibrutinib -0.062 | [9] -0.079 | ralimetinib 0.048 | [10] -0.037 | [11] -0.016 | [12] -0.014 | [13] -0.055 | [14] -0.029 | [15] 0.065 | [16] 0.071

NUDT16L1 (UniProt Q9BRJ7)
inactive: erlotinib 0.035 | [1] -0.007 | [2] 0.011 | [3] 0.027 | [4] -0.052 | [5] -0.037 | [6] -0.027 | [7] 0.003 | [8] -0.045 | IRAK-1-4 Inhibitor I -0.043 | ibrutinib 0.007 | [9] 0.014 | ralimetinib 0.009 | [10] -0.063 | [11] 0.024 | [12] 0.023 | [13] 0.012 | [14] 0.031 | [15] 0.018 | [16] -0.01

NPC2 (UniProt P61916)
inactive: erlotinib -0.017 | [1] 0.198 | [2] 0.059 | [3] -0.057 | [4] 0.039 | [5] -0.025 | [6] 0.069 | [7] -0.17 | [8] -0.039 | IRAK-1-4 Inhibitor I 0.038 | ibrutinib 0.036 | [9] 0.009 | ralimetinib 0.067 | [10] -0.06 | [11] 0.003 | [12] -0.033 | [13] 0.054 | [14] 0.022 | [15] 0.024 | [16] -0.004

2 records picked at random from those above, as already listed:
NOP9 (UniProt Q86U38)
inactive: erlotinib 0.039 | [1] -0.077 | [2] -0.105 | [3] -0.058 | [4] 0.004 | [5] -0.034 | [6] 0.045 | [7] 0.042 | [8] -0.058 | IRAK-1-4 Inhibitor I -0.043 | ibrutinib -0.062 | [9] -0.079 | ralimetinib 0.048 | [10] -0.037 | [11] -0.016 | [12] -0.014 | [13] -0.055 | [14] -0.029 | [15] 0.065 | [16] 0.071

NUDT16L1 (UniProt Q9BRJ7)
inactive: erlotinib 0.035 | [1] -0.007 | [2] 0.011 | [3] 0.027 | [4] -0.052 | [5] -0.037 | [6] -0.027 | [7] 0.003 | [8] -0.045 | IRAK-1-4 Inhibitor I -0.043 | ibrutinib 0.007 | [9] 0.014 | ralimetinib 0.009 | [10] -0.063 | [11] 0.024 | [12] 0.023 | [13] 0.012 | [14] 0.031 | [15] 0.018 | [16] -0.01

Later entries:

NUDCD2 (UniProt Q8WVJ2)
inactive: erlotinib 0.085 | [1] 0.014 | [2] 0.128 | [3] -0.072 | [4] 0.025 | [5] -0.013 | [6] 0.01 | [7] 0.021 | [8] -0.014 | IRAK-1-4 Inhibitor I 0.047 | ibrutinib 0.057 | [9] -0.025 | ralimetinib 0.026 | [10] -0.045 | [11] 0.092 | [12] -0.023 | [13] 0.004 | [14] 0.065 | [15] -0.031 | [16] -0.02

NUCKS1 (UniProt Q9H1E3)
inactive: erlotinib 0.009 | [1] 0.009 | [2] 0.029 | [3] 0.037 | [4] 0.009 | [5] 0.007 | [6] -0.028 | [7] 0.021 | [8] 0.013 | IRAK-1-4 Inhibitor I 0.032 | ibrutinib -0.017 | [9] -0.002 | ralimetinib -0.022 | [10] -0.048 | [11] -0.007 | [12] -0.033 | [13] 0.001 | [14] -0.009 | [15] 0.009 | [16] -0.026

NOA1 (UniProt Q8NC60)
inactive: erlotinib 0.001 | [1] 0.003 | [2] -0.007 | [3] -0.051 | [4] -0.024 | [5] 0.033 | [6] -0.088 | [7] 0.07 | [8] -0.046 | IRAK-1-4 Inhibitor I -0.032 | ibrutinib -0.024 | [9] -0.025 | ralimetinib 0.002 | [10] 0.034 | [11] 0.005 | [12] -0.064 | [13] -0.02 | [14] 0.002 | [15] -0.001 | [16] 0.02

NSUN6 (UniProt Q8TEA1)
inactive: erlotinib 0.013 | [1] -0.046 | [2] -0.005 | [3] -0.012 | [4] -0.011 | [5] -0.009 | [6] -0.058 | [7] 0.013 | [8] 0.005 | IRAK-1-4 Inhibitor I -0.014 | ibrutinib 0.036 | [9] -0.005 | ralimetinib 0.047 | [10] 0.006 | [11] 0.011 | [12] 0.031 | [13] -0.053 | [14] -0.006 | [15] 0.018 | [16] -0.037

NUDT21 (UniProt O43809)
inactive: erlotinib 0 | [1] -0.024 | [2] -0.004 | [3] 0.002 | [4] -0.017 | [5] -0.022 | [6] 0.006 | [7] -0.009 | [8] 0.014 | IRAK-1-4 Inhibitor I -0.006 | ibrutinib -0.001 | [9] 0.02 | ralimetinib -0.013 | [10] -0.009 | [11] 0.011 | [12] -0.029 | [13] 0.005 | [14] -0.099 | [15] -0.03 | [16] 0

NQO2 (UniProt P16083)
inactive: erlotinib -0.013 | [1] -0.004 | [2] 0 | [3] 0.002 | [4] -0.04 | [5] -0.015 | [6] 0.026 | [7] -0.003 | [8] 0.013 | IRAK-1-4 Inhibitor I 0.032 | ibrutinib 0.042 | [9] 0.009 | ralimetinib 0.005 | [10] -0.018 | [11] 0.024 | [12] 0.006 | [13] -0.003 | [14] -0.027 | [15] -0.035 | [16] -0.012

NUCB1 (UniProt Q02818)
inactive: erlotinib -0.022 | [1] 0.016 | [2] 0 | [3] -0.036 | [4] -0.021 | [5] -0.007 | [6] -0.013 | [7] 0.008 | [8] -0.001 | IRAK-1-4 Inhibitor I 0.011 | ibrutinib 0.052 | [9] -0.004 | ralimetinib -0.001 | [10] -0.001 | [11] -0.025 | [12] 0.038 | [13] 0.019 | [14] 0.011 | [15] -0.008 | [16] 0.009

NUDT19 (UniProt A8MXV4)
inactive: erlotinib -0.007 | [1] 0.056 | [2] 0.002 | [3] -0.021 | [4] 0.037 | [5] 0 | [6] 0.005 | [7] 0.013 | [8] -0.003 | IRAK-1-4 Inhibitor I 0.02 | ibrutinib -0.01 | [9] 0.133 | ralimetinib 0.024 | [10] 0.025 | [11] -0.033 | [12] 0 | [13] 0.029 | [14] -0.002 | [15] -0.007 | [16] -0.016

NPM3 (UniProt O75607)
inactive: erlotinib 0.023 | [1] -0.047 | [2] 0.034 | [3] 0.019 | [4] -0.059 | [5] -0.013 | [6] 0.025 | [7] -0.004 | [8] 0.053 | IRAK-1-4 Inhibitor I -0.028 | ibrutinib 0.038 | [9] 0.03 | ralimetinib 0.029 | [10] -0.077 | [11] 0.018 | [12] 0.048 | [13] -0.03 | [14] 0.069 | [15] 0.018 | [16] -0.037

NT5C2 (UniProt P49902)
inactive: erlotinib 0.007 | [1] 0.015 | [2] -0.026 | [3] 0.015 | [4] -0.001 | [5] -0.014 | [6] -0.007 | [7] -0.001 | [8] 0.01 | IRAK-1-4 Inhibitor I 0.059 | ibrutinib 0.016 | [9] 0.028 | ralimetinib -0.009 | [10] -0.015 | [11] -0.045 | [12] -0.019 | [13] 0.012 | [14] 0.021 | [15] -0.005 | [16] 0.004

NOL10 (UniProt Q9BSC4)
inactive: erlotinib -0.01 | [1] -0.031 | [2] 0.015 | [3] 0.005 | [4] 0.106 | [5] -0.065 | [6] 0.044 | [7] -0.142 | [8] -0.04 | IRAK-1-4 Inhibitor I -0.015 | ibrutinib 0.04 | [9] -0.029 | ralimetinib 0.014 | [10] 0.065 | [11] 0.255 | [12] -0.177 | [13] -0.037 | [14] -0.017 | [15] 0.069 | [16] 0.025

NUFIP2 (UniProt Q7Z417)
inactive: erlotinib 0.003 | [1] -0.122 | [2] 0.043 | [3] 0.016 | [4] -0.039 | [5] 0.027 | [6] -0.008 | [7] 0.01 | [8] -0.02 | IRAK-1-4 Inhibitor I -0.001 | ibrutinib 0.02 | [9] -0.021 | ralimetinib -0.033 | [10] -0.046 | [11] 0.034 | [12] 0.028 | [13] 0.047 | [14] -0.051 | [15] 0.003 | [16] -0.022
